In paper doi:10.1101/2022.05.12.491658 one finds binding data, which are given here for 2 molecules.

Amino acid sequences for entries named in this document (tags omitted). A change or cut given only in a name is not applied to a line headed by its entry.
UniProt O22607: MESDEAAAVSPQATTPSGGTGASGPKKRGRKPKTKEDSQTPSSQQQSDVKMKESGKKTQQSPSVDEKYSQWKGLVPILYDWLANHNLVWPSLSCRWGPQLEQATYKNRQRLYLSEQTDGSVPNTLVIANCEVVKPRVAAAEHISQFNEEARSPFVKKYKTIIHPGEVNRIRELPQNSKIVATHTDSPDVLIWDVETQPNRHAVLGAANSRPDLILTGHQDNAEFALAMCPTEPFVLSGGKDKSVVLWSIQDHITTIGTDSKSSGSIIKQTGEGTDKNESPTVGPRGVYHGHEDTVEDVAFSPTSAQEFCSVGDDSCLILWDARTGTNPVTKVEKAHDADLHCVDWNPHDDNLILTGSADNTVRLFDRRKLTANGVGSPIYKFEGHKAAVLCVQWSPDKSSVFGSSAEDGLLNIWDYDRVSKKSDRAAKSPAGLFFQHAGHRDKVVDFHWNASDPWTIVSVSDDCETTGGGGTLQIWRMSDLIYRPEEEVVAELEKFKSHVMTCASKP

The target of experiment [1] is T1, FLOWERING LOCUS D (FLD) (Arabidopsis thaliana) (UniProt Q9CAE3).
T1 sequence: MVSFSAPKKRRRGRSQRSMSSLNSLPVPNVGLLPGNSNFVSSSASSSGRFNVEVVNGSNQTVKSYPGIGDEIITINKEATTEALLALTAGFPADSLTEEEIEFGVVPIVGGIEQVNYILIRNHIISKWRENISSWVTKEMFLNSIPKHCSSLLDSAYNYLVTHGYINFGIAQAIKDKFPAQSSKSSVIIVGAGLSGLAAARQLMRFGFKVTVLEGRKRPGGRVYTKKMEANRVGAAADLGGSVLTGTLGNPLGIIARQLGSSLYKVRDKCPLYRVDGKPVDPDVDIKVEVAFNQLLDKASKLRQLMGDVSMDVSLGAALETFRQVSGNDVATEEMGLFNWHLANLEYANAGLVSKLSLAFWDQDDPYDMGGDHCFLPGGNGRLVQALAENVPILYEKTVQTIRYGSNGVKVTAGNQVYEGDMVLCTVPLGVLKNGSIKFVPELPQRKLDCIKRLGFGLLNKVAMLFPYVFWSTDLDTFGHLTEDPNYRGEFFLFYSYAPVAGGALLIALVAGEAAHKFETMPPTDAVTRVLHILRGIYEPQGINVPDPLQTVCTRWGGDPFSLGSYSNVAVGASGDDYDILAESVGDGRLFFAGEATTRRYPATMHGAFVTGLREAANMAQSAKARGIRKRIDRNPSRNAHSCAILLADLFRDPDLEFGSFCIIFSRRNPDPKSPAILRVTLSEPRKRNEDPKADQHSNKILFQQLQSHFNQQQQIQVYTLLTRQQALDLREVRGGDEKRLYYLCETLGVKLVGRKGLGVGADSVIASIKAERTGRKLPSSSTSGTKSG
As to the kind of experiment: two-hybrid.

For experiment [2], the target named is FLOWERING LOCUS VE (FVE) (Arabidopsis thaliana) (UniProt O22607). As to the kind of experiment: two-hybrid.

These are yes or no findings as the source states them, for the method shown. Binding can be weak; no strength is given.

Turning to “FLOWERING LOCUS VE (FVE) (from UniProt O22607)”, in experiment [1], the binding entry is “binds”.

B1: LSD1-like 1 (LDL1) (protein, UniProt Q8VXV7 1-844)
chain: MSTETKETRPETKPEDLGTHTTVDVPGEEPLGELIADDVNEVVSDASATETDFSLSPSQSEQNIEEDGQNSLDDQSPLTELQPLPLPPPLPVEARISESLGEEESSDLVTEQQSQNPNAAEPGPRARKRRRRKRFFTEINANPAFSRNRRTSVGKEVDSEALIAMSVGFPVYSLTEEEIEANVVSIIGGKDQANYIVVRNHIIALWRSNVSNWLTRDHALESIRAEHKTLVDTAYNFLLEHGYINFGLAPVIKEAKLRSFDGVEPPNVVVVGAGLAGLVAARQLLSMGFRVLVLEGRDRPGGRVKTRKMKGGDGVEAMADVGGSVLTGINGNPLGVLARQLGLPLHKVRDICPLYLPNGELADASVDSKIEASFNKLLDRVCKLRQSMIEENKSVDVPLGEALETFRLVYGVAEDQQERMLLDWHLANLEYANATLLGNLSMAYWDQDDPYEMGGDHCFIPGGNEIFVHALAENLPIFYGSTVESIRYGSNGVLVYTGNKEFHCDMALCTVPLGVLKKGSIEFYPELPHKKKEAIQRLGFGLLNKVAMLFPCNFWGEEIDTFGRLTEDPSTRGEFFLFYSYSSVSGGPLLVALVAGDAAERFETLSPTDSVKRVLQILRGIYHPKGIVVPDPVQALCSRWGQDKFSYGSYSYVAVGSSGDDYDILAESVGDGRVFFAGEATNRQYPATMHGAFLSGMREAANILRVARRRASSSALNPNQICIDKEEEVDEEEDRCLDQLFETPDLTFGNFSVLFTPNSDEPESMSLLRVRIQMEKPESGLWLYGLVTRKQAIELGEMDGDELRNEYLREKLGLVPVERKSLSQEGESMISSLKAARLNRQIFD
For B1, the binding entry in experiment [2] is reported as “binds”.
